Results are given in words; binding and its absence hold for the method and conditions named. Binding seen in cells or lysates may run through a third protein. Some binding calls cover weakened binding; strength is not graded here.

Chains of the proteins cited; added tags and fusions are not shown. Lines headed by an entry give the natural chain unless they say otherwise; changes in a name come on top. A line that says so, or that is headed by a name, gives the form on record, which may keep a tag or linker. Residues count along the entry.
UniProt Q7Z333: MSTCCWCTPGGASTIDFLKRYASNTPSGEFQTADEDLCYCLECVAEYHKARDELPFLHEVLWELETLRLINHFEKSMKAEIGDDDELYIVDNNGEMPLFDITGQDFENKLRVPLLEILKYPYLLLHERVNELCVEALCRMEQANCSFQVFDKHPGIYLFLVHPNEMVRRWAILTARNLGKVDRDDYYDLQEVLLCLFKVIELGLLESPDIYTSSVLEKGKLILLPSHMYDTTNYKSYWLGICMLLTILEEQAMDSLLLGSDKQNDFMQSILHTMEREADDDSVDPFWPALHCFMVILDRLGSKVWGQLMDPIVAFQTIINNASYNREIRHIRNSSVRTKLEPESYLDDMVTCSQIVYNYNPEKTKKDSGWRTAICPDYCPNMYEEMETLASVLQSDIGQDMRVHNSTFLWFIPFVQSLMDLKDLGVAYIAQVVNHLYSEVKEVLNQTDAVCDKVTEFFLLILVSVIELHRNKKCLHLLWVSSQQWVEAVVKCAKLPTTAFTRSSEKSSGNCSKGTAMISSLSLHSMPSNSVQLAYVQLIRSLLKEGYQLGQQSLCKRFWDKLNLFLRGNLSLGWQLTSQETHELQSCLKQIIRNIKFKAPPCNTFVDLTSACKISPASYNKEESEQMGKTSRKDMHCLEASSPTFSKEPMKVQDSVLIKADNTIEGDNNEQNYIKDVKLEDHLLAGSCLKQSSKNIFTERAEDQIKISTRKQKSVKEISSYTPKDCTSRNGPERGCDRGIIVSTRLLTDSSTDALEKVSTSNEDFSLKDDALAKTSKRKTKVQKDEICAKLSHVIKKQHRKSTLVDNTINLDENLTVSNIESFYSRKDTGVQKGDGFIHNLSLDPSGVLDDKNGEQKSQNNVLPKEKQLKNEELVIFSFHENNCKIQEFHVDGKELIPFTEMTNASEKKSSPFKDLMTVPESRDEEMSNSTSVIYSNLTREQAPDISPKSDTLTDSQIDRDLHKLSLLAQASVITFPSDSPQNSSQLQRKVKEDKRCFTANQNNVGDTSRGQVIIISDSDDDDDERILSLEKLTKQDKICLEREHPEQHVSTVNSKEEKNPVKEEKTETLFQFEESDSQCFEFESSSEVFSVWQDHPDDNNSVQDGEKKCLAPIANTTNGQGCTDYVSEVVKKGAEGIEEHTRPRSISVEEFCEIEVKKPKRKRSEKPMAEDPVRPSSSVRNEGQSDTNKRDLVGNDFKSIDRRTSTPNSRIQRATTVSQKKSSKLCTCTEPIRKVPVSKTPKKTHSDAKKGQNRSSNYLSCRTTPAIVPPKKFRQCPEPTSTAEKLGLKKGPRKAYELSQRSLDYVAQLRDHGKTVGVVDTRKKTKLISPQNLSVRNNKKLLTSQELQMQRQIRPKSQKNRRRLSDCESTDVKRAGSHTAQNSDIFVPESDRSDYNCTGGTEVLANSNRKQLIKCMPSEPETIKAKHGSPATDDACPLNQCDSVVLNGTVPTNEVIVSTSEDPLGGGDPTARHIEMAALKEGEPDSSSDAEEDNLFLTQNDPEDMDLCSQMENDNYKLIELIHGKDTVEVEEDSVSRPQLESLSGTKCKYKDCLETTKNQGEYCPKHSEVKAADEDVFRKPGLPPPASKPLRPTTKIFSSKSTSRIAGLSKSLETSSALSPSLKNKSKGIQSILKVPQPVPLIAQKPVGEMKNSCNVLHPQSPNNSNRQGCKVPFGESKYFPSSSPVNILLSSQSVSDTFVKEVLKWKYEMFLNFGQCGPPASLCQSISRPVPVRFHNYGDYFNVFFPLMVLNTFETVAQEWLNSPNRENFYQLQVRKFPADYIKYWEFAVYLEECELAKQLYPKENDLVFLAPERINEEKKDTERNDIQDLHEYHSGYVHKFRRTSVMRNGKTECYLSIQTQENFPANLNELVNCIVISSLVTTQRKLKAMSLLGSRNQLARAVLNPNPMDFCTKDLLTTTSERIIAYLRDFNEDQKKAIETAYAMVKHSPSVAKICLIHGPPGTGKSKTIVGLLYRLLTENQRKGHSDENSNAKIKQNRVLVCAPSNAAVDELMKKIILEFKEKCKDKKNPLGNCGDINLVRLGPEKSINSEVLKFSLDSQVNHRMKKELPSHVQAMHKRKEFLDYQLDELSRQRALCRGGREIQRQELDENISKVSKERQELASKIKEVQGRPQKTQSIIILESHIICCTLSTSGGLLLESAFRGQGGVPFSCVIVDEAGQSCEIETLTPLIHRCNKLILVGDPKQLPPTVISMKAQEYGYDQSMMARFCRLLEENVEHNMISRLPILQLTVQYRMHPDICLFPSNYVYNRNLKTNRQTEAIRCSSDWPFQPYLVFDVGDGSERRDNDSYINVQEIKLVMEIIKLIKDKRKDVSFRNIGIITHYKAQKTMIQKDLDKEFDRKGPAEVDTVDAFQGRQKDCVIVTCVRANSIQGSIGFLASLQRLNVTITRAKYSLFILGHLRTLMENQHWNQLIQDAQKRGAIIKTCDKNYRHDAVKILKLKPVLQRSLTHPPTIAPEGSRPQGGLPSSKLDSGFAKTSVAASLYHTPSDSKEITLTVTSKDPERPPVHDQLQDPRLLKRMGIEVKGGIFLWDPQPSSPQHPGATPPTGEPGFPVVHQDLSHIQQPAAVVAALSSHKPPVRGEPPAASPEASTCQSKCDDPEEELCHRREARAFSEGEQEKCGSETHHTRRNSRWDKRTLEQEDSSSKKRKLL
UniProt P35637: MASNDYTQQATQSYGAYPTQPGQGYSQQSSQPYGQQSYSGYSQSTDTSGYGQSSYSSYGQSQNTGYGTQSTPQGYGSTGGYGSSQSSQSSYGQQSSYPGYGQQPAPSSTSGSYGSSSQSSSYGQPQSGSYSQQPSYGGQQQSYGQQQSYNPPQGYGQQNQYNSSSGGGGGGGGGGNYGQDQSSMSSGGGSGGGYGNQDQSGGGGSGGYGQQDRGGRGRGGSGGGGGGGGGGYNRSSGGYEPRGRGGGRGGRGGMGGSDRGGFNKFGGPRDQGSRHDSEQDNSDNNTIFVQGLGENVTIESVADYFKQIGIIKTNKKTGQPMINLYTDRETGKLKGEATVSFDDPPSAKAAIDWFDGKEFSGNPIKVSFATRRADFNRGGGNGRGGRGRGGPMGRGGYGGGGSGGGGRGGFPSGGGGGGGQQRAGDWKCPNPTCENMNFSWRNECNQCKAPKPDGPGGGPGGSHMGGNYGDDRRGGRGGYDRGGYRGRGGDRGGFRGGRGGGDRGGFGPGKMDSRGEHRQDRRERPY
EGFP-tagged FUS p.Gly167_Gly168del (P35637, form named): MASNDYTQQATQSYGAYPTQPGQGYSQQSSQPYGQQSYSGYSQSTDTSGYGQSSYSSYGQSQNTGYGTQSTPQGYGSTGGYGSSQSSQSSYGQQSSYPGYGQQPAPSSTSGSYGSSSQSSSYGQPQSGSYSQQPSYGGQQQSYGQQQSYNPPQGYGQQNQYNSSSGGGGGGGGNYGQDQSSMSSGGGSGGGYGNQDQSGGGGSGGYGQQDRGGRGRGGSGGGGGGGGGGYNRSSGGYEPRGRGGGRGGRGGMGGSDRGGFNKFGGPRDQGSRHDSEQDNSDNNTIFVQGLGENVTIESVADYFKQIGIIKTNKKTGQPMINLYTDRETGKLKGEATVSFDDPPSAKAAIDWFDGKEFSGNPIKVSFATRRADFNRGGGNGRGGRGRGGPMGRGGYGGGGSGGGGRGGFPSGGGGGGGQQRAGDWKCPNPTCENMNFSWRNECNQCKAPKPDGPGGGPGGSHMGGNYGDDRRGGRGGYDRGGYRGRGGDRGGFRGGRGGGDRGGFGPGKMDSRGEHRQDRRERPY
EGFP-tagged wild type human prelamin A/C (lamin A) (P02545, residues 2-664): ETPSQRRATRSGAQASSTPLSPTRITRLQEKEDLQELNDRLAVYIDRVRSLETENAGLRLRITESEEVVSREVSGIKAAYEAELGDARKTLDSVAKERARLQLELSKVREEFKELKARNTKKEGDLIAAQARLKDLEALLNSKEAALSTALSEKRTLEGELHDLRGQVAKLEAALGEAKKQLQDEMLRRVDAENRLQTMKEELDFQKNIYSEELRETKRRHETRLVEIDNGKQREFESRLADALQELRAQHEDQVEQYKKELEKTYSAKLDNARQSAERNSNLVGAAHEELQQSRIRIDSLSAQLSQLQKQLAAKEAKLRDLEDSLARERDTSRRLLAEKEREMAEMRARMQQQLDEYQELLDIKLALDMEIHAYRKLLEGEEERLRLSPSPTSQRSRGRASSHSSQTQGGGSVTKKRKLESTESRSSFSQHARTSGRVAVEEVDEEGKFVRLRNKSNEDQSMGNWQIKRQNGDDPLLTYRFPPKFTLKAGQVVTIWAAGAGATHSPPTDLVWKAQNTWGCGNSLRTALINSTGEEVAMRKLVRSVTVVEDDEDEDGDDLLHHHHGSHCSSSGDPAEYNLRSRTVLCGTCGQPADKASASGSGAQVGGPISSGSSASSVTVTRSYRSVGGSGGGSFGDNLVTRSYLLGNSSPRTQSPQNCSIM
EGFP-tagged G602S lamin A (pEGFP-G602S-Lamin) (P02545, form named): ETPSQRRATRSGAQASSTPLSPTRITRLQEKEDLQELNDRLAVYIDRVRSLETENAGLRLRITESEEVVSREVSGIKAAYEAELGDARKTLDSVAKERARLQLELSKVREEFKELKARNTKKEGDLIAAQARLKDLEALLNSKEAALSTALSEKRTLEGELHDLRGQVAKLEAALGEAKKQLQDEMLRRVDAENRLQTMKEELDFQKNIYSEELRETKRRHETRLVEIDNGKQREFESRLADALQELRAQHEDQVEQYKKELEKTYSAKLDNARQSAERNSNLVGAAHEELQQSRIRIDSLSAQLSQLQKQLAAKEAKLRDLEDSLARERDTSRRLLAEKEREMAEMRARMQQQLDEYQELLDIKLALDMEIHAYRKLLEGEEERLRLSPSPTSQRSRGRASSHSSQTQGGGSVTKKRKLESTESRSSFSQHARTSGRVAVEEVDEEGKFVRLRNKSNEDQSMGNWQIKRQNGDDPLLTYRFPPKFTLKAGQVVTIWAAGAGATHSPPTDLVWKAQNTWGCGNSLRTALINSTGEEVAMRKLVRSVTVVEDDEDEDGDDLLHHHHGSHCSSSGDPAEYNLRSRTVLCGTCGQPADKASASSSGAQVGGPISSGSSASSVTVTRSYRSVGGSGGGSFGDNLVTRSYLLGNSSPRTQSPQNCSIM

The experiment has as its target wild type human SETX-Flag (senataxin) (human) (UniProt Q7Z333). Briefly: co-IP; HEK293T cells co-expressing EGFP-FUS or EGFP-LMNA with SETX; NP40 lysis buffer (50 mM Tris pH 8.0, 100 mM NaCl, 1 mM EDTA, 1% NP40, 10% glycerol); 1 mg total protein, IP with 1 ug anti-SETX antibody and pansorbin, 1 h at RT; western blot for WT or MT FUS and LMNA. For orientation: Immunoblotting shows a protein as a band on a membrane.
With “EGFP-tagged FUS p.Gly167_Gly168del (from UniProt P35637 1-526)”, the binding entry is listed as “no binding”.
The entry for “EGFP-tagged G602S lamin A (pEGFP-G602S-Lamin) (from UniProt P02545 2-664)” is “binds”.
Consider “EGFP-tagged wild type human FUS (fused in sarcoma) (from UniProt P35637 1-526)”, for which the binding entry was “binds”.
The entry for “EGFP-tagged wild type human prelamin A/C (lamin A) (from UniProt P02545 2-664)” is “binds”.

The record behind these values is paper PMC8192393.
